Results from US5891859.
For some assays here: Negatives hold for the conditions tested. For some assays here: Where cells or extracts were used, other partners may take part.

The chains behind the UniProt entries cited, without tags or fusion partners.
UniProt P93835, whole entry N143D: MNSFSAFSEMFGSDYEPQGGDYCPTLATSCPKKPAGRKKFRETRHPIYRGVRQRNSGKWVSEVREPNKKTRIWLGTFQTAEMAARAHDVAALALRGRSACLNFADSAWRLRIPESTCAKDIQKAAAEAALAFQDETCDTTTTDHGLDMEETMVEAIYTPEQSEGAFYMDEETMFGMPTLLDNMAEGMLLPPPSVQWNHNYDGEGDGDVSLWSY

Tests used:
[1] = target: CBF1 (24 kDa polypeptide) (Arabidopsis thaliana) (UniProt P93835); assay: one hybrid; conditions: protein in cells
[2] = target: CBF1 (Arabidopsis thaliana) (UniProt P93835); assay: EMSA; conditions: dimer probe 1 ng; 15 mM HEPES pH 7.9, 1 mM EDTA, 30 mM KCl, poly(dI-dC), room temperature; no shift with BSA, vector or antisense extracts; protein in a lysate after overexpression; label: 32P (end-filled, dimer probe)

## GATCAATATACTACCGACATGAGTTCT (double strand) [MT66 COR78-1 C-repeat/DRE]
[1]; dimer of MT66, lacZ reporter
  activity on this sequence: active

## GATCACTTGATGGCCGACCTCTTTTTT (double strand) [MT68 COR15b C-repeat/DRE]
[1]; dimer of MT68, lacZ reporter
  activity on this sequence: active

## GATCATTTCATGGCCGACCTGCTTTTT (double strand) [MT50 COR15a C-repeat/DRE]
[1]; dimer UAS-lacZ reporter in yeast activated, label: 32P (end-filled, dimer probe)
  activity on this sequence: active
[2]
  binding result: binds

## GATCATTTCATGGTATGTCTGCTTTTT (double strand) [MT80 M2COR15a]
[1]; dimer UAS-lacZ reporter in yeast not activated, variant of MT50 COR15a C-repeat/DRE
  activity on this sequence: not active
